Library screening results

Source: ChEMBL document CHEMBL3988442, “University of Dundee, Small-Polar-MMV Screening Library” (2021).

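Whole-cell assay for inhibitors of Mycobacterium tuberculosis growth, labelled Cornell in the record; the read-out is not stated. The concentration is filed as 10 mM, unlikely as a test dose, so the dose is not known. Higher means stronger inhibition (inferred from two other growth screens of the library). About 53,000 compounds were tested under these conditions; 1.7% (about 900) showed 50% or more at least once.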

Each number is a percent effect as filed.
The record does not define 0% and 100%; most values in the screen are far below 50% and negative numbers occur (in some assays of this library far below -100).
The compounds are a random part of those screened.

compound,effect
CC(C)N1CCC(Cc2cc(-c3ccccc3C(=O)O)ncn2)CC1,-8.159%
CC(C)(C)c1nccc(N2CCN(C3CCS(=O)(=O)C3)CC2)n1 (centres unmarked),-4.352%
O=C(O)C(F)(F)F.[H][C@@]12CCN(c3cnccn3)C[C@]1([H])CN(C(=O)CCC)C2,-22.86%
Cc1[nH]c2c(C)ccc(C)c2c1CC(=O)NCCNc1cccnc1,-7.699%
Cc1cc(C(C)NC(=O)CCN2C(=O)c3ccccc3C2=O)c(C)o1 (centres unmarked),-10.62%
COc1ccc(Cn2c(=O)n(C)c(=O)c3sccc32)cc1,18.75%
N#CCCN1CCC(=Cc2ccccc2)CC1,19.14%
CCOC(C)c1nccn1CC(=O)Nc1cc(C)on1 (centres unmarked),42.71%
CC(C)N1CC(C(=O)N2CCC(Oc3ccccc3Cl)CC2)CC1=O (centres unmarked),17.97%
Cc1nc(CN2Cc3cn(C)nc3C(COCC3CC3)C2)cs1 (centres unmarked),-21.23%
Cc1cc(C(=O)N2CCC(N3CCNC3=O)CC2)nn1C(C)(C)C,-14.43%
CN(C)CCN1C(=O)CCC12CCN(C(=O)c1cccnc1)CC2.O=C(O)C(F)(F)F.O=C(O)C(F)(F)F,1.557%
Cc1ccc([C@H]2CN(CCO)C[C@@H]2NC(=O)CN2CCCCC2=O)o1,24.96%
CN(Cc1ccccc1)C(=O)CS(=O)(=O)Cc1ccc(Cl)c(Cl)c1,14.34%
CCc1nnc2n1CCN(Cc1csc(-c3ccccc3F)n1)C2,-10.65%
O=C1N(Cc2cccc(F)c2F)CCCC1(O)CN1CCCOCC1 (centres unmarked),30.88%
Fc1ccc(C2(CNC3=NCCCN3)CCC2)cc1.I,-9.94%
CN1CC(C(=O)NCc2ccc(Br)cc2F)CC1=O (centres unmarked),3.605%
O=S(=O)(Nc1ccc(N2CCOCC2)cn1)c1cccc(F)c1,37.01%
CC1CCN(Cc2cnc(S(=O)(=O)CC3CC3)n2CC2CCCO2)CC1 (centres unmarked),-6.948%
O=C(O)C(F)(F)F.O=C(c1cscn1)N1CCC2(CN(Cc3nccs3)C2)C1,8.231%
CN(Cc1nc(CC2CC2)no1)CC1COc2ccccc2O1 (centres unmarked),30.31%
c1nc(N2CCOC(Cn3cncn3)C2)c2cc[nH]c2n1 (centres unmarked),-1.284%
O=C(O)C(F)(F)F.[H][C@@]12CCN(c3cccnc3)C[C@]1([H])CN(C(=O)C1CCCC1)C2,21%
CN(Cc1ccc(Cl)cc1)C(=O)Nc1cnn(CC(N)=O)c1,-33.59%
CCc1nccn1C1CCCN(C(=O)c2csc(NC(C)=O)n2)C1 (centres unmarked),19.9%
CCN(CC)C(=O)[C@@H]1C[C@@H](NC(=O)c2cccn2C2CC2)CN1C,14.53%
COc1cccc(-c2noc(-c3ccc(N4CC(N)C4)nc3)n2)c1OC,20.57%
[H][C@]12CCN(C(=O)C3CCCO3)CC[C@@]1([H])S(=O)(=O)N(CC(=O)N(C)C)C2 (some centres unmarked),20.96%
COCC1c2nnn(CC3CC3)c2CCN1C(=O)N1CCCC1 (centres unmarked),-39.19%
Cc1cc(N2CCc3cnc(C)nc3C2)n2nc(C(F)(F)F)nc2n1,-4.243%
OCCN1CCC(Cc2nccs2)CC1,40.03%
CC(C)N(C)C(=O)c1ccc(Cl)c(NC(=O)C2CCC2)c1,-20.59%
[H][C@@]12CS(=O)(=O)C[C@]1([H])N(C(=O)c1snnc1C)CCN2CC=C(C)C,-30.15%
Cc1nn(C)c(C)c1CN(C)CC1(O)CCCN(C)C1 (centres unmarked),10.23%
O=C(O)C(F)(F)F.O=C(O)C(F)(F)F.[H][C@]12CCC[C@@H](CN(C)CCOC)[C@@]1([H])CN(Cc1ccc(OC)nc1)C2,18.81%
CC(C)n1cc(C(=O)N2CCN(c3cccc(C(F)(F)F)c3)CC2)cn1,20.51%
Cc1ncc(CNCCO)c2cc(C(=O)c3ccc(Br)cc3)oc12.Cl,4.705%
CCn1nccc1CNc1[nH]cnc2nncc1-2,-13.63%
C[C@@H]1CN(Cc2ccco2)CCN1C(=O)Cc1ccccc1F,-13.97%
Cc1ccc(CN2CCC(c3nnc(CN4CCCCC4)n3C)CC2)o1,22.58%
CCC1CCCCN1CCNC(=O)N1CCN(Cc2ccon2)CC1 (centres unmarked),-8.047%
N#Cc1cccc(CN(CCO)Cc2ccsc2)c1,-0.7053%
CC(C(=O)NC1CC1)S(=O)(=O)Cc1csc(-c2cccs2)n1 (centres unmarked),-20.06%
c1ccc(O[C@H]2COCCN(Cc3cccc4c3OCO4)C2)cc1,2.132%
O=C(Cc1c(F)cccc1F)N1CCN(CC(=O)N2CCCC2)CC1,20.57%
Cc1nn(CC(=O)O)c(C)c1NS(=O)(=O)c1cc2ccccc2s1,-21%
CCCc1nnc(NC2CCN(Cc3ccc(F)c(F)c3)CC2)o1,-5.672%
O=S1(=O)N(c2ccccc2)C[C@H](O)[C@]12CCNC2,35.54%
O=C(O)C(F)(F)F.O=C(O)C(F)(F)F.[H][C@@]12CCCO[C@]1([H])[C@H](N(C)Cc1ccco1)CN2Cc1ccc(F)cc1,-9.411%
NC(=O)N1CCCCCC1C1CCN(c2nccc(C(F)(F)F)n2)CC1 (centres unmarked),20.13%
CCc1nnc(CN2CCC3(CCC(=O)N(C4CCCC4)C3)CC2)o1,21.9%
CC(C)Nc1nc2c(cc1C(=O)NCC1CC1)CCN(S(C)(=O)=O)CC2.O=C(O)C(F)(F)F,-9.031%
CCOCCN1C[C@H](c2cccc(OC)c2)[C@@H](N)C1,40.32%
CC(C)N1CCC2(C=C(C(=O)N(C)C)c3ccccc32)CC1.O=C(O)C(F)(F)F,-31.07%
O=C(O)C(F)(F)F.[H][C@@]12OCCN(CC3CCOCC3)[C@@]1([H])CC[C@H]2OCC1CC1,6.029%
O=c1ccc(-c2cccs2)nn1CN1CCOC(c2ccccc2)C1 (centres unmarked),34.19%
CCN1CCN(CC(O)c2ccc(F)cc2)CC1 (centres unmarked),15.87%
CCC(CC)(CCCNC(=O)c1c(C)noc1C)C1OCCO1,-24.28%
CC(=O)N[C@H]1CCO[C@@H](c2cccc(NC(=O)c3ccc(=O)[nH]n3)c2)C1,-28.11%
CNC(=O)COC1COC2(CCN(c3cnccn3)CC2)C1.O=C(O)C(F)(F)F (centres unmarked),27.94%
Cc1nc[nH]c1C(=O)N1CCCC2(CN(C)C(=O)O2)C1 (centres unmarked),-21.28%
CN(C)c1cc2c(nn1)CCN(C(=O)C1COc3ccccc3C1)C2 (centres unmarked),2.393%
CCS(=O)(=O)c1ccc(N2CCC(NC(=O)NC(C)CO)CC2)cc1 (centres unmarked),10.87%
O=c1[nH]c(N2CCOCC2)nc2c1CN(Cc1cccnc1)CC2,6.409%
CC(NCCn1cccn1)c1cc(F)ccc1F (centres unmarked),16.2%
NC(=O)c1ccccc1Oc1cccc(C2CCCNC2)n1 (centres unmarked),-0.6055%